In test [1] the target is WalK-LgBIT (native WalK) (S. aureus) (UniProt Q2FKN7). Description: split reporter; same cultures and read-out as a1, in the stationary phase (5 h).
Test [2] has the same target. Description: split reporter; WalR-SmBIT (pSmBIT) and WalK-LgBIT (pLgBIT) alleles together in living S. aureus NRS384; LB with chloramphenicol, kanamycin and Nano-Glo substrate 1:5,000, 37°C, 96-well plate; OD600nm and light emission (RLU) read every 10 min over 8 h; lag and exponential phase.

The chains behind the UniProt entries cited, without tags or fusion partners.
UniProt Q2FKN7: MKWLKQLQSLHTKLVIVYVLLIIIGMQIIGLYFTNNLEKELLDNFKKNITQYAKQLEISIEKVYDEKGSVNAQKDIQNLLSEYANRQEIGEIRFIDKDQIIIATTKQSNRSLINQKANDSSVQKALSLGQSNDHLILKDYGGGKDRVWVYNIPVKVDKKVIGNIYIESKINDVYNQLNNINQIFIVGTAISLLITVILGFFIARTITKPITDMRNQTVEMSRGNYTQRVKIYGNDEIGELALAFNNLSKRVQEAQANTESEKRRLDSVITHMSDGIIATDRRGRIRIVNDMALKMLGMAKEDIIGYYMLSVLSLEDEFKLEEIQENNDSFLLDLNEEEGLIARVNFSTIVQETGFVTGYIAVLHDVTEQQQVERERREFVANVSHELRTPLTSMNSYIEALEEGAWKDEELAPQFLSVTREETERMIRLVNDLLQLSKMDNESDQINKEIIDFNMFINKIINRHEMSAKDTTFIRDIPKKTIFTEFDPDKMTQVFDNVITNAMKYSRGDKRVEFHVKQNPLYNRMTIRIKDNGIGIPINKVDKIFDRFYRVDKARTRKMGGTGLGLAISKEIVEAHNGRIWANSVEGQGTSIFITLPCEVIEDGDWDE
UniProt Q2FKN8: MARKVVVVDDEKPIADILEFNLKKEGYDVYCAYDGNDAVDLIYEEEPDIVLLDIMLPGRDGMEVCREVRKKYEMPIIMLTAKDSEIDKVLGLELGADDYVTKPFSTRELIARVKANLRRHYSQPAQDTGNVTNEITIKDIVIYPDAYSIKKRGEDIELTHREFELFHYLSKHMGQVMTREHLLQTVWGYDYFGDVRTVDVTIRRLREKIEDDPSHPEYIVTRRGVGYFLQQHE

Results are given in words; binding and its absence hold for the method and conditions named. Binding seen in cells or lysates may run through a third protein. Some results given as binding are weak or reduced against the parent protein; the word gives no strength.

Turning to “WalR-SmBIT (native WalR) (from UniProt Q2FKN8 1-233)”, the binding entry in test [1] was “no binding (condition: stationary phase (5 h))”; in test [2] it was “binds”.

The values are drawn from publication PMC10746227.
